Experimental data taken from paper PMC8771551.

Target: Flag-KLF5-ΔN (C-terminus of KLF5 with PY motif)
Experiment: co-IP; CL1-0 cells cotransfected with α-Catulin-GFP and Flag-KLF5 wild-type or truncated mutants; anti-Flag immunoprecipitation, blot with anti-α-Catulin

B1: GFP-tagged full-length α-Catulin (protein, UniProt Q9UBT7 1-734)
chain: MAASPGPAGVGGAGAVYGSGSSGFALDSGLEIKTRSVEQTLLPLVSQITTLINHKDNTKKSDKTLQAIQRVGQAVNLAVGRFVKVGEAIANENWDLKEEINIACIEAKQAGETIAALTDITNLNHLESDGQITIFTDKTGVIKAARLLLSSVTKVLLLADRVVIKQIITSRNKVLATMERLEKVNSFQEFVQIFSQFGNEMVEFAHLSGDRQNDLKDEKKKAKMAAARAVLEKCTMMLLTASKTCLRHPNCESAHKNKEGVFDRMKVALDKVIEIVTDCKPNGETDISSISIFTGIKEFKMNIEALRENLYFQSKENLSVTLEVILERMEDFTDSAYTSHEHRERILELSTQARMELQQLISVWIQAQSKKTKSIAEELELSILKISHSLNELKKELHSTATQLAADLLKYHADHVVLKALKLTGVEGNLEALAEYACKLSEQKEQLVETCRLLRHISGTEPLEITCIHAEETFQVTGQQIISAAETLTLHPSSKIAKENLDVFCEAWESQISDMSTLLREINDVFEGRRGEKYGYLSLPKPMKNNANLKSLKPDKPDSEEQAKIAKLGLKLGLLTSDADCEIEKWEDQENEIVQYGRNMSSMAYSLYLFTRGEGPLKTSQDLIHQLEVFAAEGLKLTSSVQAFSKQLKDDDKLMLLLEINKLIPLCHQLQTVTKTSLQNKVFLKVDKCITKTRSMMALLVQLLSLCYKLLKKLQMENNGWVSVTNKDTMDSKT
- binding: binds

These are yes or no findings as the source states them, for the method shown. In cells and extracts the contact can be indirect. Binding can be weak; no strength is given. Where a sequence is shown, tags or fusion partners need not be part of it.
